This series is described as follows: Photoswitched sulfate precipitation-dissolution cycle in DMSO. An excerpt: At higher concentrations in DMSO, the 2PyDIG receptor binds to sulfate as the 1:2 complex (Eq. 4 in Table 1) and precipitates as illustrated in FIG. 12. The precipitate instantly forms upon addition of two equivalents of sulfate, putatively assigned as the [(E,E-2PyDIG)(SO4)2]^2− species. […] The present work was able to indirectly determine the amount of precipitated 2PyDIG and relative ratio of PyDIG to sulfate of the precipitate. Upon addition of sulfate to the E,E-2PyDIG solution, 73.7% of the E,E-PyDIG receptor precipitates according to a ^1H NMR spectrum of the supernatant. Adding barium chloride to the separated supernatant precipitated the non-interacting sulfate, affording a ratio of sulfate to PyDIG of 2.05. The estimated percentage of sulfate precipitated by gravimetric analysis is 63%. Photoirradiating the suspension redissolves the solid, where the E,E-PyDIG undergoes photoisomerization to the Z,Z form, ejecting bound sulfate in the process, as summarized in Eq. 6. Over time, the free Z,Z-PyDIG in solution reverts to the E,E through a thermal relaxation process, where the [(E,E-2PyDIG)(SO4)2]^3− species is again precipitated.

Regarding `N=C(N/N=C/c1ccccn1)N/N=C/c1ccccn1.O=S(=O)(O)C(F)(F)F` [E,E-2PyDIG, bis(2-((E)-pyridin-2-ylmethylene)hydrazineyl)methaniminium trifluoromethanesulfonate], the “receptor precipitated upon addition of sulfate” value (10 mM in DMSO, two equivalents of sulfate, 1H NMR of supernatant) was determined as 73.7%. Further, the “ratio of sulfate to PyDIG of the precipitate” value (barium chloride added to separated supernatant) was determined as 2.05. For the same compound, the “estimated percentage of sulfate precipitated” value (gravimetric analysis) is 63%.

Source of the values: US12662403B2, “Photoswitchable guanidinium compounds for removal of oxyanions from liquid solutions” (UT-Battelle, LLC, priority 2021, dated 2026).
